PubChem BioAssay AID743454 | Peter MacCallum Cancer Centre | 2014
Here is a random part of about 18,000 deposited reagents. In the full data, 450 (2.5%) got an active call. 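Single biological run; no consistent viability z cut-off exists, so the class columns, not z-scores, define the calls.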

- Aim: 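Knock-downs lowering viability or raising caspase 3/7 activity in vorinostat-treated resistant cells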 (primary screen)
- System: human HCT116-VR colon cancer cells, selected for vorinostat resistance
- Knock-down reagent: siRNA pool against human genes, 40 nM siRNA pool
- Time to read-out: vorinostat for 24 h, read-out about 72 h after transfection
- Challenge: vorinostat at 2.5 µM final
- Detection: 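Two measures, CellTiter-Fluor viability and luminescent caspase 3/7 activity, each as fold change against same-plate mock wells, mean of duplicates, then screen-wide robust z-score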
- Scale: viability robust z-score: higher = more viable cells than screen typical; caspase robust z-score: higher = more caspase 3/7 activity than screen typical
- Call rule: 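a knock-down is a hit when classed RV1 or RV2 for lowered viability, or CA1 or CA2 for caspase activation; those lethal without drug were dropped; hits were retested singly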

gene | viability hit class | caspase hit class | viability robust z-score | caspase robust z-score | Call
B3GNT2 | no change | no change | 1.68 | -0.52 | inactive
SLC12A6 | no change | no change | 1.4 | -0.6 | inactive
HOXB5 (homeobox B5) | no change | no change | -0.68 | -0.89 | inactive
CD226 (CD226 molecule) | no change | no change | 0.47 | 2.01 | inactive
PDE8B (phosphodiesterase 8B) | no change | no change | -1.43 | 2.62 | inactive
PPP6R3 (protein phosphatase 6 regulatory subunit 3) | no change | no change | 0.2 | -0.04 | inactive
TWF1 (twinfilin actin binding protein 1) | no change | no change | 0.88 | 0.22 | inactive
FOXK1 (forkhead box K1) | no change | no change | 0.87 | 2.97 | inactive
WNT4 (Wnt family member 4) | no change | no change | -1.01 | 1.82 | inactive
RXFP2 (relaxin family peptide receptor 2) | no change | no change | 1.11 | -0.44 | inactive
TULP3 (TUB like protein 3) | no change | no change | 0.36 | -0.4 | inactive
CHRAC1 (chromatin accessibility complex subunit 1) | no change | no change | -0.08 | 4 | inactive
WFDC3 (WAP four-disulfide core domain 3) | no change | no change | -1 | 0.16 | inactive
GOLGA6L9 (golgin A6 family like 9) | no change | no change | -0.4 | -0.2 | inactive
CHCHD4 (coiled-coil-helix-coiled-coil-helix domain containing 4) | no change | no change | -0.99 | -0.01 | inactive
ZNF585B (zinc finger protein 585B) | no change | no change | -1.44 | -0.5 | inactive
TMEM190 (transmembrane protein 190) | no change | no change | -0.6 | -0.48 | inactive
HS3ST3A1 (heparan sulfate-glucosamine 3-sulfotransferase 3A1) | no change | no change | -0.68 | -0.24 | inactive
OGG1 (8-oxoguanine DNA glycosylase) | no change | no change | -1.65 | 0.45 | inactive
ZNF613 (zinc finger protein 613) | no change | no change | 0.77 | 0.69 | inactive
RAB27B (RAB27B, member RAS oncogene family) | no change | no change | 0.72 | 0.59 | inactive
PGAP6 (post-GPI attachment to proteins 6) | no change | no change | 1 | -0.22 | inactive
P2RX5 (purinergic receptor P2X 5) | no change | no change | -0.38 | 1.39 | inactive

Limited to “caspase hit class”, for 3 of the entries above:
HS3ST3A1 (heparan sulfate-glucosamine 3-sulfotransferase 3A1)	no change
OGG1 (8-oxoguanine DNA glycosylase)	no change
ZNF613 (zinc finger protein 613)	no change
